Reference: publication PMC9959553, “Promising Antifungal Molecules against Mucormycosis Agents Identified from Pandemic Response Box®: In Vitro and In Silico Analyses” (Journal of Fungi, 2023)

System: R. oryzae UCP1295
Assay: Screening of the Pandemic Response Box library at 5 µM
Assay type: cell-based, Rhizopus oryzae
Conditions: 48 h, Table S1, mean of the four values
Procedure: Rhizopus oryzae UCP is the most prevalent Mucorales species in human infections and was used as a reference strain to screen the Pandemic Response Box® library. Screening was performed according to Rollin-Pinheiro and colleagues. Each compound was diluted in RPMI 1640 medium (Sigma Chemical Co., St. Louis, MO, USA), supplemented with 2% glucose and buffered with 3-(N-morpholino) propanesulfonic acid (MOPS) (Sigma Chemical Co., St. Louis, MO, USA) (0.165 mol/L, pH 7.2, from here on referred to as ‘supplemented RPMI’) to reach 5 μM in 96-well microtiter plates. Posaconazole (5 μM) and supplemented RPMI containing 1% DMSO were used as controls (both from Sigma Chemical Co., St. Louis, MO, USA). Conidia (2 × 10^5/mL) were added and incubated for 48 h at 37 °C in a 5% CO2 atmosphere. […] An inhibition of at least 60% was defined as the cut-off to select the promising drugs with antifungal activity against the Rhizopus species.

Cl.Clc1ccc(COC(Cn2ccnc2)c2ccc(Cl)cc2Cl)c(Cl)c1 (stereo not shown) [MMV002722]
% of growth inhibition, Mean: -15.6%
